These are yes or no findings as the source states them, for the method shown. Binding calls can cover weak binding; strength is not graded here.
Columns and labels:
[1] = molecular target: Human TIGIT residues 23-128 with C-terminal HIS tag (human); assay: co-crystal structure (figure legend)
[2] = molecular target: Human TIGIT residues 23-128 with C-terminal HIS tag (human); assay: co-crystal structure; complex purified by gel filtration

B1: A1217 (Ociperlimab) Fab (Fab, V domains shown)
VH: EVQLVESGGGLVQPGGSLRLSCAASGFTFSDYYMYWVRQAPGKGLEWVAYITKGGGSTYYPDSVKGRFTISRDNAKNTLYLQMNSLRAEDTAVYYCARQTNYDFTMDYWGQGTLVTVSS
VL: EIVMTQSPATLSVSPGERATLSCKASQDVGTSVAWYQQKPGQAPRLLIYWASARHTGIPARFSGSGSGTEFTLTISSLQSEDFAVYYCQQYSSYPLTFGGGTKVEIK
For B1, the binding [1] was “binds” and the binding [2] was “binds”.
